Measurements reported in PubChem BioAssay AID504786 (Drosophila RNAi Screening Center, 2011)

- Test: 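Knock-downs reducing HIF reporter induction by the iron chelator DFO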 (primary screen)
- Cell system: Drosophila S2 cells with a stable HIF luciferase reporter
- Knock-down reagent: long dsRNA against Drosophila genes, about 0.2 µg dsRNA per well of a 384-well plate
- Duration: three days of knock-down, then 20 h of DFO before reading
- Treatment: desferrioxamine (DFO) at 100 µM, an iron chelator that mimics hypoxia, for 20 h
- Detection: 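Firefly luciferase driven by the mouse ldh-a hypoxia-response element, measured after 20 h of 100 µM DFO; z-scores per plate, higher means more signal lost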
- Reading the numbers: z-score: higher = stronger loss of HIF reporter signal
In all, the deposit lists about 21,000 reagents; below is a random part of those that have a named target and a result. 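Primary screen; positive scores mean lost reporter signal, so the sign may be inverted from the usual convention.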 No sequences are given here.

predicted target | DRSC id | z-score, replicate 1 | z-score, replicate 2 | z-score, replicate 3 | z-score, replicate 4
CG15876 | DRSC08484 | -0.4 | 0.8 | – | –
foi | DRSC10719 | 0.4 | 0.6 | – | –
PIG-B | DRSC08216 | -0.3 | -0.4 | -0.2 | -0.2
TwdlT | DRSC16677 | -0.2 | -0.7 | – | –
Ir75a | DRSC10188 | -0.2 | -0.2 | – | –
Pex11ab | DRSC07145 | -0.3 | -0.5 | – | –
Muc12Ea | DRSC19937 | -0.4 | 0.4 | -0.2 | 0
Cyp9f3 | DRSC16636 | -0.3 | -0.5 | – | –
CG10063 | DRSC09688 | -0.4 | -0.8 | – | –
Stat92E | DRSC16870 | 0.2 | 0.2 | – | –
CG14408 | DRSC19595 | -0.4 | -0.4 | – | –
CG11069 | DRSC14289 | -0.2 | 0.1 | – | –
ChAT | DRSC13314 | 0.5 | -0.1 | – | –
ChAT | DRSC16609 | -1.2 | -0.4 | – | –
Obp56e | DRSC07188 | -0.2 | -0.4 | – | –
apolpp | DRSC17216 | -0.3 | -0.4 | – | –
CG8051 | DRSC20077 | -0.9 | -1.4 | – | –
xit | DRSC18364 | -0.3 | -0.2 | – | –
CG42675 | DRSC12157 | -0.4 | -0.7 | – | –
Gs1 | DRSC00753 | -0.3 | -0.1 | – | –
Vm26Aa | DRSC03472 | -0.2 | -0.4 | – | –
ppk16 | DRSC02736 | -0.4 | -0.1 | – | –
CTCF | DRSC11004 | -0.4 | -0.4 | – | –
cta | DRSC03769 | -0.2 | -0.1 | – | –
CG7142 | DRSC16204 | -0.7 | -0.2 | – | –
CG6340 | DRSC19987 | -0.4 | -0.1 | -0.2 | -0.6
Atg12 | DRSC09803 | -0.1 | 0 | – | –
L | DRSC06666 | -0.2 | 0.4 | – | –
L | DRSC06668 | -0.2 | -0.1 | – | –
CG9411 | DRSC20184 | -0.3 | -0.4 | – | –
yellow-f2 | DRSC16372 | -0.2 | -0.5 | – | –
Serinc | DRSC11296 | -0.3 | -0.3 | – | –
bi | DRSC18742 | -0.3 | -0.4 | – | –
Prp31 | DRSC10735 | 1.1 | 1.5 | – | –
mEFTu2 | DRSC06163 | 0.1 | -0.1 | – | –
GstD5 | DRSC16686 | -0.3 | -0.2 | – | –
CG18599 | DRSC15357 | -0.5 | -1 | -0.1 | -0.2
Cyp6v1 | DRSC20565 | -0.4 | -0.5 | – | –
adp | DRSC06916 | -0.3 | -0.4 | – | –
Uxt | DRSC01962 | -0.2 | -0.2 | – | –
CG9300 | DRSC11064 | 0.2 | 2.9 | – | –
MrgBP | DRSC06417 | 0.5 | 0.5 | – | –
CG14851 | DRSC14975 | -0.4 | -0.9 | – | –
Rpn11 | DRSC03422 | 7.2 | 6.6 | – | –
CG13708 | DRSC08317 | -0.3 | -0.5 | – | –
CheA7a | DRSC17965 | -0.3 | -0.3 | – | –
Ser8 | DRSC06891 | 0 | -0.2 | – | –
CG12213 | DRSC14478 | -0.1 | -0.2 | -0.7 | -0.2
wapl | DRSC18851 | -0.2 | -0.9 | – | –
HP1b | DRSC18418 | -0.1 | -0.1 | – | –
CG9815 | DRSC04567 | 0.3 | 0.3 | – | –
CG33298 | DRSC02210 | -0.3 | -0.3 | – | –
CG33298 | DRSC02672 | -0.2 | -0.5 | – | –
CG12835 (retired record) | DRSC06181 | -0.3 | -0.2 | – | –
CG15394 | DRSC00408 | 0 | -0.3 | – | –
Ggamma30A | DRSC02715 | -0.3 | -0.4 | – | –
Ggamma30A | DRSC03331 | -0.2 | -0.1 | – | –

As entered above:
Under “z-score, replicate 2”, L [DRSC06668] has -0.1
Value of yellow-f2 [DRSC16372] under “z-score, replicate 1”: -0.2
Ir75a [DRSC10188], z-score, replicate 1 → -0.2
Entry of Serinc [DRSC11296] in “z-score, replicate 1”: -0.3
Ser8 [DRSC06891], z-score, replicate 1 = 0
CG33298 [DRSC02672], z-score, replicate 2 = -0.5
